Measurements from PMC10721157.
Results are given in words; binding and its absence hold for the method and conditions named. Binding can be weak; no strength is given. Where a sequence is shown, tags or fusion partners need not be part of it.

Protein sequences, listed by entry. Tags and fused reporters are not part of them. Lines headed by an entry give the natural chain unless they say otherwise; changes in a name come on top.
UniProt P14060: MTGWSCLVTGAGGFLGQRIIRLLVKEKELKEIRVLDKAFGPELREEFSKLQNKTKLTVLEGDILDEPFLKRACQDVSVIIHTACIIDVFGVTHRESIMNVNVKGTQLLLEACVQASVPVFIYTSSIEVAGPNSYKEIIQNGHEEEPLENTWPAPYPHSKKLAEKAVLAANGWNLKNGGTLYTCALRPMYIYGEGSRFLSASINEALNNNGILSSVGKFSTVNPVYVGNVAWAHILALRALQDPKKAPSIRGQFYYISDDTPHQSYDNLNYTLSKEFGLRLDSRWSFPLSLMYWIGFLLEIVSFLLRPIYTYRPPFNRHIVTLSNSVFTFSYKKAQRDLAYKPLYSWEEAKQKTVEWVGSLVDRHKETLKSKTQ

Molecular target: GST-3βHSD1 (human) (UniProt P14060)
Assay: pull-down; GST-3βHSD1 on glutathione resin in PBS overnight; MBP-UBE3D added for 2 hours at 4°C; washed with NP-40 lysis buffer (50 mM Tris-HCl pH 7.6, 150 mM NaCl, 5 mM EDTA, 1% NP-40); immunoblotting; both purified

B1: MBP-UBE3D (enzyme, UniProt Q7Z6J8 1-389)
chain: MAASAAETRVFLEVRGQLQSALLILGEPKEGGMPMNISIMPSSLQMKTPEGCTEIQLPAEVRLVPSSCRGLQFVVGDGLHLRLQTQAKLGTKLISMFNQSSQTQECCTFYCQSCGEVIIKDRKLLRVLPLPSENWGALVGEWCCHPDPFANKSLHPQENDCFIGDSFFLVNLRTSLWQQRPELSPVEMCCVSSDNHCKLEPKANTKVICKRCKVMLGETVSSETTKFYMTEIIIQSSERSFPIIPRSWFVQSVIAQCLVQLSSARSTFRFTIQGQDDKVYILLWLLNSDSLVIESLRNSKYIKKFPLLENTFKADSSSAWSAVKVLYQPCIKSRNEKLVSLWESDISVHPLTLPSATCLELLLILSKSNANLPSSLRRVNSFQVAFLKM
binding: binds
